Assay results as given in patent US20150259412A1.
These are yes or no findings as the source states them, for the method shown. Some entries that bind do so weakly or less than the wild type. Tags and fused reporters may be left off the sequences shown.

Target: T1, recombinant human Siglec-10-Fc (R & D Systems) (human) (UniProt Q96LC7)
T1 sequence: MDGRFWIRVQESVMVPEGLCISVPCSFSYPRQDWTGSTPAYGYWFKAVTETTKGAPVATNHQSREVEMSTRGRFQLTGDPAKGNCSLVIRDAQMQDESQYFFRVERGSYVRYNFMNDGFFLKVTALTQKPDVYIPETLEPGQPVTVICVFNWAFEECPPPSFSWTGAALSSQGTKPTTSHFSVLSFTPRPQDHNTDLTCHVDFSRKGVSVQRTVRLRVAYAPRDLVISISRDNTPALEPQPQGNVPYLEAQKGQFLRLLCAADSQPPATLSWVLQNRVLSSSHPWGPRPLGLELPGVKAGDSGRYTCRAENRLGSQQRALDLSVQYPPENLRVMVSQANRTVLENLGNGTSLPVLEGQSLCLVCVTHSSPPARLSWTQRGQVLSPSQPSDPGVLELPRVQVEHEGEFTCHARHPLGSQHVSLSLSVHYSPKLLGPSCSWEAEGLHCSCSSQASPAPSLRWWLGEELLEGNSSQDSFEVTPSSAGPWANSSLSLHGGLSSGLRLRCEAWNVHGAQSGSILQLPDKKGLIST
Experiment: soluble Siglec-10-Fc reverses suppression by CD52^hi CD4^+ T-cells in IFN-gamma ELISpot (data not shown; inferred)

binding: binds
Binder: GQNDTSQTSSPS (ligand, asparagine (N)-linked terminal carbohydrate)
